This note sets out measurements from patent publication US20050069542A1 (Human Genome Sciences, published 2005).

Sequences of proteins named here, by UniProt entry; tags and fusion partners are left off. A change or cut given only in a name is not applied to a line headed by its entry.
UniProt Q9HD89: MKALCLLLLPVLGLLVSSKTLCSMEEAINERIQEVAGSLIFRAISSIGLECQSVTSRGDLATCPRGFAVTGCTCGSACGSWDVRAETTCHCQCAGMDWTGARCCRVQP

Sequences and labels used below:
B1: GMBC673 (scFv)
scFv: EVQLVESGGGLVQTGGSLRLSCAASGFPIGSHWMSWVRQSPGKGLEWVASIKQDGREKHFVDSVKGRFGISRDNAKDSLYLQMNSLRIEDTAVYYCARETYGGYYYYFMDVWGRGTLVTVSSGGGGSGGGGSGGGGSSELTQDPAVSVALGQTVRITCQGDSLRSYYASWYQQKPGQAPVLVIYGKNNRPSGIPDRFSGSSSGNTASLTITGAQAEDEADYYCQTWGPGIRVFGGGTKLTVLG
B2: GMBC662 (scFv)
scFv: GVQLVQSGAEVKKPGSSVKVSCKASGGTFSSYTISWVRQAPGQGLEWMGRIIPILGIANYAQKFQGRVTITADKSTSTAYMELSSLRSEDTAVYYCAREKLRDFQHWGQGTLVTVSSGGGGSGGGGSGGGGSQSVLTQPASVSGSPGQSITISCTGTSSDVGGYNYVSWYQQHPGKAPKLMIYEGSKRPSGISNRFSGSKSGNTASLTISRLQAEDEADYYCSSYTTRSTRVFGGGTKLTVLG
B3: GMBC687 (scFv)
scFv: QVQLVQSGAEVKKPGSSVKVSCKAPGDTFSNYIFNWVRQAPGQGLEWMGGIIPKFGTVNDAHKFQDRVTIAADESTNTASMELSSLTSEDTAVYYCACEPIPKDYGDVNGLEIWGKGTMVTVSSGGGGSGGGGSGGGGSDIQMTQSPSTLSASIGDRVTITCRASEGIYHWLAWYQQKPGKAPKLLIYKASSLASGAPSRFSGSGSGTDFTLTISSLQPDDFATYYCQQYSNYPLTFGGGTKLEIKR
B4: GMCC105 (scFv)
scFv: QVQLVQSGGGVVQPGRSLRLSCTASGFNLGSHGMHWVRQAPGKGLEWVAVIGFDGTTKYYVDSVKGRFTISRDNSRNTLSLQMNSLRAEDTAVYYCVREDYYYDSSGYYFDYWGRGTLVTVSSGGGGSGGGGSGGGGSALSSELTQDPFVSVALGQTVRIACRGDSLRDSYASWYQQKPGQAPRLLVYGNNLRPSGIPGRFSGSSSGDTASLSITETQAGDEADYYCSSRGNSTSRLYVFGTGTKLTVLG
B5: GMCC108 (scFv)
scFv: EVQLVQSGAEVKEPGASVTVSCKASGYTFISYHMHWVRQAPGQGLEWMGIINPSGGDTTYAQKFQGRVTMTRDTSTSTVYMELRSLRFEDTARYYCARDLKFYDFRSGKYQDYGMDVWGQGTLVTVSSGGGGSGGGGSGGGGSAQSVLTQPPSLSVAPGQTASITCGGNDIGTKSVHWYQLKPGQAPVLVVYDNRDRPSGIPERFSGSNSGNTATLTISRVEGGDEADYYCQVWDSSIDHSEYVFGTGTKLTVLG
B6: GMCC110 (scFv)
scFv: QVQLQESGPGLVKPSQTLSLTCTVSGASISSGGYRWIWIRQHPGQGLEWIGDIHYSGSTQYNPSLKSRVALTLDRSKNQFSLQLSSVTAADTAVYYCARDPRGHTYGYGYYFDYWGKGTLVTVSSGGGGSGGGGSGGGGSALSSELTQDPDVSVALGQTVTITCQGDRLRRYYASWYQQKPGQAPVLVIFRKNNRPSGIPDRFSGSSSGDTASLTITGAQAEDEADYYCNSRDTSGTLSFGGGTQLTVLS
B7: GMBC646 (scFv)
scFv: GVQLVQSGAEVKKPGASVKVSCKASGYTFTSYYIHWVRQAPGQGLEWMGIINPSGGTTSYAQKFQGRVTMTRDTSTSTVYMELSSLRSEDTAMYYCARERFLRGMDVWGRGTMVTVSSGGGGSGGGGSGGGGSDIVMTQSPSTLSASVGDRVTITCRASQGISSWLAWYQQKPGRAPKVLIYKASTLESGVPSRFSGSGSGTDFTLTISSLQPEDFATYYCQQSYSTPWTFGQGTKLEIKR
B8: GMBC696 (scFv)
scFv: EVQLVQSRAEVKKPGASVKVSCKTSGYTFNGYYIHWVRQAPGQGLEWMGWIDPINSVTNYAQNFQGRVTMTRDTSINTAYMELSRLTSDDTAVYYCARARVSTILQYWGQGTLVTVSSGGGGSGGGGSGGGGSSELTQDPAVSVALGQTVRITCQGDSLRSYYASWYQQKPGQAPVLVIYGKNNRPSGIPDRFSGSSSGNTASLTITGAQAEDEADYYCNSRDSSGNHVVFGGGTKLTVLG
B9: GMCC101 (scFv)
scFv: EVQLVQSGAEVKKPGSSVKVSCKASGGTFRTYAITWVRQAPGQGLEWMGGIIPISATANYAQKFQGRVTITADESMSTAYMELSSLRSEDTAVYYCARDREPHYFDNWGRGTMVTVSSGGGGSGGGGSGGGGSALPVLTQPPSVSEAPRQGVTISCSGSSSNIGNNAVSWYQQLPGQAPKLLIYYDDLLPSGVSDRFSASKSGTSASLAISGLQSEDEADYYCAAWDDSLNGVIFGGGTQLTVLS
B10: GMBC655 (scFv)
scFv: EVQLVESGGGLVKPGGSLRLSCAASGFTFSSYGMSWIRQAPGKGQEWVSAISGSGGSAYYADSVKGRFTISRDNSKNTLYLQMNSLRAEDTAVYYCAKAYSSEDYWGRGTMVTVSSGGGGSGGGGSGGGGSNIQMTQSPSFLSASVGDRVTITCRASQGINNYLAWYQQKPGRAPKLLIYAASSLQSGVPSRFSGSGSGTDFTLTISSLQPDDFATYYCQQYSNYPLTFGGGTKLEIKR
B11: GMBC691 (scFv)
scFv: EVQLVQSGAEVKKPGASMKVSCKTSGDTFNGFYVHWVRQAPGQGLEWMGRINPNGGGTNYAQKFQGRVTMTRDTSMNTAYMELRSLRSDDTAVYYCARDLFYDFWSDYYRNDQYYYMDVWGRGTLVTVSSGGGGSGGGGSGGGGSSELTQDPAVSVALGQTVRITCQGDSLRSYYASWYQQKPGQAPVLVIYGKNNRPSGIPDRFSGSSSGNTASLTITGAQAEDEADYYCNSRDSSGNHVVFGGGTKLTVLG
B12: GMBC681 (scFv)
scFv: QVQLVQSGGGVVQPGGSLRLSCAASGFTFSSYGMHWVRQAPGKGLEWVAFIRYDGSNKYYADSVKGRFTISRDNSKNTLYLQMNSLRAEDTAVYYCAKGGTGYFDLWGRGTLVTVSSGGGGSGGGGSGGGGSDIQMTQSPSTLSASIGDRVTITCRASEGIYHWLAWYQQKPGKAPKLLIYKASSLASGAPSRFSGSGSGTDFTLTISSLQPDDFATYYCQQYSNYPLTFGGGTKLEIKR
B13: GMCC107 (scFv)
scFv: QVQLVQSGAEVKKPGASVKVSCRTSGYTFTDHSMHWVRQAPGQRFEWMGWIGADSGSTQYSRNFQGRLTIGRDTSASTVYMELTSLRSEDTAVYYCARVGGGQGWYSGMDVWGRGTLVTVSSGGGGSGGGGSGGGGSAQAVLTQPSSVSGAPGQRVTISCTGSSSNIGASYDVHWYQQLPGTAPKLLIYNNNNRPSGVPDRFSGSRSGTSASLAITGLQAEDEADYYCHSYDSNLSGDVFGSGTKLTVLG
B14: GMBC652 (scFv)
scFv: GVQLVQSGGVVVKPGGSLRLSCAASGFTFSDAWMNWVRQAPGKGLEWVGRIKSKGSGGTTDYAAPVKGRFTISRDDSENTLYLQMNSLKTEDTAVYYCTWDHSYYYDMAVWGRGTMVTASSGGGGSGGGGSGGGGSQSVLTQPASVSGSPGQSITISCTGTSSDVGGYNYVSWYQQHPGKAPKFMIYDVSKRPSGVSNRFSGSKSGNTASLTISGVQAEDEADYYCSSYTSASTVIFGGGTKLTVLG
B15: GMBC730 (scFv)
scFv: QVQLVESGGDSVKPGGSLRLSCAGSGFTFSDAWMNWVRQAPGKGLEWVGRMKSKGSGGTRDYAAPVNGRFTISRDDSKNTLYLQMNSLNTEDTGVYYCTWDWDFYYGMDVWGKGTTVTVSSGGGGSGGGGSGGGGSQSVLTQPASVSGSPGQSITISCTGTSSDVGGYNYVSWYQQHPGKAPKLMIYEGSKRPSGVSNRFSGSKSGNTASLTISGLQAEDEADYYCSSYTTRSTRVFGGGTKLTVLG
B16: GMBC669 (scFv)
scFv: QVQLVESGGALVKPGGSLRLSCAASGFTFSDAWMNWVRQAPGKGLEWVGRIKSKGSGGTIDYAAPVKDRFTISRDDSKNTLYLQMNSLKTEDTALYYCTWDWDFYYGMNVWGQGTLVTVSSGGGGSGGGGSGGGGSQSVLTQPPSASGSPGQSVTISCTGTSSDVGGYNYVSWYQQHPGKAPKFMIYDVSKRPSGVSNRFSGSKSGNTASLTISGVQAEDEADYYCSSYTSASTVIFGGGTKLTVLG
B17: GMBC678 (scFv)
scFv: B16 scFv with Q1E, A10G
B18: GMBC689 (scFv)
scFv: B16 scFv with A10G, I236V

Numbering of substitutions follows the chain as printed. These are yes or no findings as the source states them, for the method shown. Some binding calls cover weakened binding; strength is not graded here.

The target in the first experiment is Flag-tagged recombinant human GMAD (human) (UniProt Q9HD89). The experiment in a line: phage ELISA. In general terms: An ELISA detects its analyte on a solid surface through an enzyme-linked reagent.
As for B1, the binding entry is “binds”.

On to B2, for which the binding entry is “binds”.

In the case of B3, the binding result is “binds”.

Consider B4, for which the binding entry is listed as “binds”.

For B5, the binding result was “binds”.

As for B6, the binding result is recorded as “binds”.

With B7, the binding entry is on record as “binds”.

For B8, the binding result is recorded as “binds”.

With B9, the binding entry is on record as “binds”.

In the case of B10, the binding result is “binds”.

On to B11, for which the binding result was “binds”.

Consider B12, for which the binding result is reported as “binds”.

With B13, the binding result is reported as “binds”.

Take B14: the binding entry is given as “binds”.

In the case of B15, the binding entry is “binds”.

On to B16, for which the binding entry was “binds”.

Consider B17, for which the binding entry is on record as “binds”.

B18: the binding entry was “binds”.

The target is the same in a further experiment. As to the kind of experiment: phage display selection of scFvs.
Consider B1, for which the binding result is on record as “binds”.

Turning to B2, the binding result is “binds”.

Take B3: the binding entry is “binds”.

For B4, the binding entry is on record as “binds”.

For B5, the binding entry is “binds”.

For the molecule B6, the binding result is on record as “binds”.

As to B7, the binding entry was “binds”.

Consider B8, for which the binding result is listed as “binds”.

As to B9, the binding entry is given as “binds”.

Consider B10, for which the binding entry is given as “binds”.

As for B11, the binding result is “binds”.

As for B12, the binding entry is “binds”.

In the case of B13, the binding entry is reported as “binds”.

In the case of B14, the binding result was “binds”.

Take B15: the binding entry is reported as “binds”.

With B16, the binding entry was “binds”.

Consider B17, for which the binding entry is reported as “binds”.

For B18, the binding result was “binds”.
